# Several values for one entry are separate records, joined by “and”; a condition that tells them apart may be missing. Equal values may be shown once. Among all 580,000 compounds or so, about 6,100 (1.1%) were called active. The inconclusive results got no clear call from the source; some entries with a clear call stand among them for comparison. Calls come from the whole dose curve; as a rule, active = well fitted inhibition curve with a large enough effect; inconclusive = small, poorly fitted or top-dose-only effect, or another doubt; inactive = no such curve, though single readings can be large or run the other way. Potencies beside an inconclusive call are fits to weak or partial responses and may not hold up.
# Protein sequences, listed by entry. Tags and fused reporters are not part of them. Lines headed by an entry give the natural chain unless they say otherwise; changes in a name come on top.
# UniProt P18054: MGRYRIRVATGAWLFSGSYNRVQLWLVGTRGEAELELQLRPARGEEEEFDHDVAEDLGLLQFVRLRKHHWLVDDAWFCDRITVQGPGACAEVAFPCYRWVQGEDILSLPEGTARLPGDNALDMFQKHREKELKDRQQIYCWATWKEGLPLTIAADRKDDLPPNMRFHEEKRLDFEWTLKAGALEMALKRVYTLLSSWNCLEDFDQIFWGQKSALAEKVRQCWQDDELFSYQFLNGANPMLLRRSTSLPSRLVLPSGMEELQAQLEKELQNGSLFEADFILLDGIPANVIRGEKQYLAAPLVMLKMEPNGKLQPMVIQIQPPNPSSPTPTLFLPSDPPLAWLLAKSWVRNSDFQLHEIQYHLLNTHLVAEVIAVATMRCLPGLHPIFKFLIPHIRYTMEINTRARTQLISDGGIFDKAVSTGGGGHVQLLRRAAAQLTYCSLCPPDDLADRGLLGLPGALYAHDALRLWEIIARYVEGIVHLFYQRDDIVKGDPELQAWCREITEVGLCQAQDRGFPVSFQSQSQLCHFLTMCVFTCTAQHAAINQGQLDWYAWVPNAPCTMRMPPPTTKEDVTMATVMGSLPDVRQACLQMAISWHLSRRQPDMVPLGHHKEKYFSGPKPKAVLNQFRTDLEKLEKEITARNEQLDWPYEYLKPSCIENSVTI
# Target: Polyunsaturated fatty acid lipoxygenase ALOX12 (Homo sapiens) (UniProt P18054)
# Experiment: Primary qHTS assay for inhibitors of human arachidonate 12S-lipoxygenase (ALOX12): Round 2
# Details: purified 12hLO, xylenol orange hydroperoxide absorbance; series mostly up to 108 µM
# Method in brief: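 Hydroperoxide product was detected by ferrous iron/xylenol orange as the 573 to 405 nm absorbance ratio. Arachidonic acid at 40 uM (final) was turned over for 30 min at room temperature by 150 nM human 12hLO, pH 7.0 Hepes buffer, after 15 min compound preincubation.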
# Potency is the fitted concentration of half-maximal effect.
row,Compound,Potency
1,COc1ccc(N2CCCC2)c(NC(=O)c2ccc(Br)o2)c1,"inconclusive: 126 µM [inhibitor, single point]"
2,CCOc1cc(NS(=O)(=O)c2ccc(Cl)cc2)c(OCC)cc1NC(=O)CC(C)C,"inconclusive: 112 µM [inhibitor, partial curve, poor fit]"
3,O=C(COc1ccccc1)N1CCN(C(=O)c2cccc(F)c2)CC1,inactive
4,CCNc1cc2n(c(=O)n1)CCc1cc(OC)c(OC)cc1-2,inactive
5,N/C(=N\OC(=O)c1ccccc1)C(Cc1ccccc1)C(=O)NOC(=O)c1ccccc1 (centres undefined),"inconclusive: 141 µM [inhibitor, single point]"
6,COc1cccc(CC(=O)N[C@@H]2C[C@H](Cn3cc(CN(C)C)nn3)[C@@H](O)[C@H]2O)c1,inactive
7,COc1ccccc1CNC(=O)c1ccc2cn[nH]c2c1,"inconclusive: 28.2 µM [inhibitor, single point]"
8,Cc1cc(=O)c2c(O)c3c(O)cc(=O)c4c3c3c(cc(O)c1c23)C(C)(C)C=4O,"inconclusive: 79.4 µM [inhibitor, partial curve, poor fit]"
9,CCOC1=C2CN(S(=O)(=O)c3ccc(C)cc3)[C@H](c3cccs3)C[C@H]2n2c(=O)n(-c3ccccc3)c(=O)n2C1,inactive
10,CCNC(=S)N/N=C/c1ccc(OCCOc2ccccc2C)cc1,inactive
11,O=C(c1ccc2c3c(cccc13)CC2)C1CCCN(C(=O)c2cc[n+]([O-])cc2)C1 (centres undefined),inactive
12,COCCn1ncc(N2CCCC(CC(=O)NCc3cccc(Cl)c3)C2)cc1=O (centres undefined),"inconclusive: 1 µM [inhibitor, full curve]"
13,COCCNc1nc2ccccc2nc1NS(=O)(=O)c1ccc(C)cc1C,"inconclusive: 100 µM [inhibitor, single point]"
14,CN(c1ncc(C(F)(F)F)cc1Cl)N1C(=O)c2cccc(N)c2C1=O,inactive
15,COc1ccc(-c2ccc(-c3nnn(CC(=O)N4CCOCC4)n3)cc2)cc1,inactive
16,Cc1c(-c2ccccc2)nc2ccccc2c1C(=O)NC1CC1,inactive
17,Cc1cccc(OCCc2noc(C3CCNC3)n2)c1 (centres undefined),inactive
18,C[C@H](CO)N1C[C@H](C)[C@@H](CN(C)C(=O)Nc2ccccc2)Oc2ncc(C#CC3CCCCC3)cc2C1=O,"inconclusive: 39.8 µM [inhibitor, partial curve, poor fit]"
19,CC(C)=CCC/C(C)=C/CNCC(O)CN1CCOCC1 (centres undefined),active: 0.631 µM
20,O=C(O)c1cc(-c2ccccn2)nc2ccccc12,"inconclusive: 0.282 µM [inhibitor, full curve, poor fit]"
21,CC(C)C[C@@H]1N[C@H](C(=O)NCCOc2ccccc2)Cc2cn(C)c3cccc1c23,inactive
22,COCC(=O)n1nc(NCc2ccccc2Cl)nc1NCc1ccccc1Cl,"inconclusive: 50.1 µM [inhibitor, partial curve, poor fit]"

# Entries shown so far containing fluorine:
row,Compound,Potency
3,O=C(COc1ccccc1)N1CCN(C(=O)c2cccc(F)c2)CC1,inactive
14,CN(c1ncc(C(F)(F)F)cc1Cl)N1C(=O)c2cccc(N)c2C1=O,inactive

# Continued:

row,Compound,Potency
1,O=C(CSc1nc(=O)n2cc(Cl)ccc2n1)NCCc1ccccc1,"inconclusive: 50.1 µM [inhibitor, partial curve, poor fit]"
2,CC[C@]1(C(=O)OC)[C@H]2C(=O)N(Cc3ccccc3)C(=O)[C@H]2[C@H]2CN=C(SCc3ccccc3)N21,"inconclusive: 28.2 µM [inhibitor, partial curve]"
3,CCCNc1c(NC(=O)Nc2ccc(C)c(F)c2)c(=O)oc2ccccc12,"inconclusive: 89.1 µM [inhibitor, single point]"
4,CCCNc1nc(-c2ccc(Cl)cc2)c(CC(=O)O)s1,"inconclusive: 4.47 µM [inhibitor, full curve]"
5,Cc1ccc2c(=O)cc(C(=O)N3CCN(c4cccc(Cl)c4)CC3)oc2c1C,"inconclusive: 126 µM [inhibitor, single point]"
6,Cc1ccc(C(=O)Nc2ccc3c(c2)nc(CCNC(=O)c2ccco2)n3C)cc1,"inconclusive: 3.55 µM [inhibitor, full curve, poor fit]"
7,COc1ccc(NC(=O)CCc2nc(-c3ccccc3F)no2)cc1,inactive
8,CCCc1c(C)c2ccccc2[nH]c1=O,"inconclusive: 100 µM [inhibitor, partial curve, poor fit] and inconclusive: 39.8 µM [inhibitor, partial curve, poor fit]"
9,CC1=C(C(N)=O)C(c2ccc(Cl)cc2)n2nc(-c3cccc(C)c3)nc2N1 (centres undefined),inactive
10,COc1ccccc1CNc1ccnc(-c2ccc3c(c2)OCO3)n1,"inconclusive: 12.6 µM [inhibitor, full curve]"
11,O=C(CCn1c(=O)c2cccn2c2cccnc21)Nc1ccccc1Br,"inconclusive: 112 µM [inhibitor, partial curve, poor fit]"
12,CCNC(=O)c1ccc(CN2C(=O)NC3(CCS(=O)(=O)CC3)C2=O)cc1,inactive
13,Nc1sc(-c2ccccc2)cc1C(=O)NCCc1c[nH]c2ccccc12,inactive
14,CCCCN(C)C(=O)Cn1c(=O)c(S(=O)(=O)c2ccccc2)cc2ccccc21,"inconclusive: 112 µM [inhibitor, single point]"
15,Cc1ccccc1-c1nnc(SCC(=O)NC2CCCC2)o1,"inconclusive: 112 µM [inhibitor, single point]"
16,C=CCN1C(=O)C(O)=C(C(C)=O)C1c1ccccc1F (centres undefined),"inconclusive: 35.5 µM [inhibitor, partial curve, poor fit]"
17,CCc1noc(C)c1C(=O)Nc1nc(-c2ccc(OC)c(OC)c2)cs1,"inconclusive: 50.1 µM [inhibitor, partial curve, poor fit]"
18,COc1ccc(Nc2cc(C)nc(Nc3ccc(NC(=O)C(C)(C)C)cc3)n2)cc1,"inconclusive: 112 µM [inhibitor, single point]"
19,COC(=O)C(C)N1C(=O)S/C(=C/c2ccc(OC)cc2)C1=O (centres undefined),inactive
20,Oc1cccc(NC(=S)Nc2ccc(SC(F)F)cc2)c1,"inconclusive: 44.7 µM [inhibitor, partial curve, poor fit]"
21,CC1Cc2ccccc2N1C(=O)CSc1nncn1C (centres undefined),inactive
22,S=C1NCCN1c1ccc(Cl)cc1,"inconclusive: 50.1 µM [inhibitor, partial curve, poor fit]"
